Measured values: US20020098520A1, “Cell tests and diagnostic index for alzheimer's disease” (priority 1993, published 2002)
At least one compound was matched to its structure with a doubt left. Where no end group is shown, it is not given here.

Assays:
[1] = system: cultured fibroblasts (AD, controls); assay: Bombesin induced Ca2+ responses (Example 7, diagnostic index); type: cell-based, human; details: 1 μM bombesin; for magnitude of the responses (integrated area under the curve), Mean±SEM: following the CR
[2] = system: human skin fibroblasts (AD, AC, YC); assay: Bombesin-Ca2+ Diagnostic Test, [Ca2+]i imaging (fura-2); type: cell-based; details: for [Ca^2+]i at 42 sec after bombesin: 1 μM bombesin, absence of extracellular Ca^2+
[3] = system: cultured fibroblasts (AD, controls, Es); assay: Bradykinin induced Ca2+ responses (Example 7, diagnostic index); type: cell-based, human

In the case of `CSCC[C@H](NC(=O)[C@H](CC(C)C)NC(=O)[C@H](Cc1cnc[nH]1)NC(=O)CNC(=O)[C@@H](NC(=O)[C@H](C)NC(=O)[C@H](Cc1c[nH]c2ccccc12)NC(=O)[C@H](CCC(N)=O)NC(=O)[C@H](CC(N)=O)NC(=O)CNC(=O)[C@H](CC(C)C)NC(=O)[C@H](CCCN=C(N)N)NC(=O)[C@H](CCC(N)=O)NC(=O)[C@@H]1CCC(=O)N1)C(C)C)C(N)=O` [bombesin], the “number of control cell lines with criterion responses” value ([1]; 10 control cell lines) is reported as 2, the “number of AD cell lines without criterion response” value ([1]; N=14 total AD cell lines) is reported as 3 and the “responses to bombesin in all cell lines” value ([1]; even in the absence of external Ca^2+) is reported as “elicited responses in all cell lines”. For the same compound, the “magnitude of the responses (integrated area under the curve), Mean±SEM” value ([1]; AD cell lines) was 26956±4494.7 nM-sec, the “magnitude of the responses (integrated area under the curve), Mean±SEM” value ([1]; controls) was 5402.3±3606.4 nM-sec and the “[Ca^2+]i at 42 sec after bombesin” value ([2]; AC) was “less than 300 nM”. For the same compound, the “[Ca^2+]i at 42 sec after bombesin” value ([2]; YC) was < 200 nM, the “Ca^2+ response in the presence of extracellular calcium” value ([2]; 1 μm bombesin, 2.5 mM CaCl2, YC and AC cells) was “fast peak of [Ca^2+]i followed by a sustained phase” and the “IP3-induced Ca^2+ release response in AD fibroblasts compared with other groups” value ([2]; bombesin, independent of extracellular Ca^2+) was “larger and more prolonged response”. For the same compound, the “[Ca^2+]i at 42 seconds after bombesin” value ([2]; control non-AD cells) was “less than 300 nM”.
With RPPGFSPFR [bradykinin] the “calcium elevations in response to bradykinin, distribution among cell lines” value ([3]; 100 pM bradykinin) was “almost exclusively observed in AD cell lines”, the “number of AD cell lines with clear responses” value ([3]; 100 pM bradykinin, 14 AD cell lines) was 13 and the “responses of Es cell lines to bradykinin” value ([3]; 100 pM bradykinin, Es (escapees)) was “responses similar to those of control cell lines”. For the same compound, the “responses of control cells to bradykinin” value ([3]; 100 pM bradykinin, control cell lines N=11) was “virtually no responses” and the “responses at higher bradykinin concentration, AD and controls” value ([3]; Higher bradykinin concentration (24 1 nM)) was “responses of similar magnitude”.
